The list shows a part of the results.
What was measured:
Assay in all cases: log2 fold change, soluble protein after heating vs DMSO (PISA); higher = thermal stabilisation; K562 lysate, 10 uM; active = over 0.2 and 3.5 SD of the protein, either way, in both replicates (recomputed)
[1] = compound: CC1=C(C2=C(C=C1)C(=O)C3=CC=CC=C3N2CCCN)C
How it was run: (§1)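 Quantification was by TMTpro 16plex LC-MS/MS with equalised channel sums, applied to the supernatant after 21,000xg for 90 min. Samples were crude K562 extract at 1 mg/mL protein in PBS pH 7.4 with 1 mM MgCl2, treated with 10 μM compound for 30 min, heated for 3 min across 48°C-58°C, pooled and brought to 0.5% NP-40 at 4°C. Values are log-two fold changes in thermal stability relative to solvent controls, from duplicates.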

Sequences of proteins named here, by UniProt entry; tags and fusion partners are left off. A change or cut given only in a name is not applied to a line headed by its entry.
UniProt Q15935: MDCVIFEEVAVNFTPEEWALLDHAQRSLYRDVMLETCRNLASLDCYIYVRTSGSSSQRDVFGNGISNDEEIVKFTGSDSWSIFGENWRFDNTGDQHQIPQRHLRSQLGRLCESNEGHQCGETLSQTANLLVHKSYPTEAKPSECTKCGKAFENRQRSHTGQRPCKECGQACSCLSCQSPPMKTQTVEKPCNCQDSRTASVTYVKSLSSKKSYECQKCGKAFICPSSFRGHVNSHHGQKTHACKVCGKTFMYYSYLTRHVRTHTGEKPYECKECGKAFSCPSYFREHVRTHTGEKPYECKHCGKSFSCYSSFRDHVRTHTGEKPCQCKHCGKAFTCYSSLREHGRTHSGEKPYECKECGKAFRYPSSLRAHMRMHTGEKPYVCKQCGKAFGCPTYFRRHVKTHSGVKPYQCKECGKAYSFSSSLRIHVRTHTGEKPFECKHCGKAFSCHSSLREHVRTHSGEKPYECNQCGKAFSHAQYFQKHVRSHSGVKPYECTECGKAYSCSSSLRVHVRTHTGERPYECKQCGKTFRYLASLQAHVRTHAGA
UniProt Q8NCK3: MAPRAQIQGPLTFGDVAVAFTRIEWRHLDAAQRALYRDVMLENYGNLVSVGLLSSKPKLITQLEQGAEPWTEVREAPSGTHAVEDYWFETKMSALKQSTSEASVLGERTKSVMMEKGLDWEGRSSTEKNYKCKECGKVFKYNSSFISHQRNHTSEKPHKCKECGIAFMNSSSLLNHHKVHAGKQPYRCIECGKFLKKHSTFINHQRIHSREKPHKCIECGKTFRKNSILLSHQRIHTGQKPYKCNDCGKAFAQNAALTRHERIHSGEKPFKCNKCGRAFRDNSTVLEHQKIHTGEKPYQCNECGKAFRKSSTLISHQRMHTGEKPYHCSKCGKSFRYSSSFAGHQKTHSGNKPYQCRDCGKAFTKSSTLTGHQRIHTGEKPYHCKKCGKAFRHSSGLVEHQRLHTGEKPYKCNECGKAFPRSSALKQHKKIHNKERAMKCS
UniProt Q15072: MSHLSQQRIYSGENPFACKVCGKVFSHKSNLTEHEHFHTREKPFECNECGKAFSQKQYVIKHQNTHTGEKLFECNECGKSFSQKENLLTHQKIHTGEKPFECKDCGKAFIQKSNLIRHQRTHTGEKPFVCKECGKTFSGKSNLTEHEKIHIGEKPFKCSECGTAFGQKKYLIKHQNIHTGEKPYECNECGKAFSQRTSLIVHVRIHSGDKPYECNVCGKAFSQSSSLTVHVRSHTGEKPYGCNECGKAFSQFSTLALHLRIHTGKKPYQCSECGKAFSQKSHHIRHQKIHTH
UniProt Q9UJ78: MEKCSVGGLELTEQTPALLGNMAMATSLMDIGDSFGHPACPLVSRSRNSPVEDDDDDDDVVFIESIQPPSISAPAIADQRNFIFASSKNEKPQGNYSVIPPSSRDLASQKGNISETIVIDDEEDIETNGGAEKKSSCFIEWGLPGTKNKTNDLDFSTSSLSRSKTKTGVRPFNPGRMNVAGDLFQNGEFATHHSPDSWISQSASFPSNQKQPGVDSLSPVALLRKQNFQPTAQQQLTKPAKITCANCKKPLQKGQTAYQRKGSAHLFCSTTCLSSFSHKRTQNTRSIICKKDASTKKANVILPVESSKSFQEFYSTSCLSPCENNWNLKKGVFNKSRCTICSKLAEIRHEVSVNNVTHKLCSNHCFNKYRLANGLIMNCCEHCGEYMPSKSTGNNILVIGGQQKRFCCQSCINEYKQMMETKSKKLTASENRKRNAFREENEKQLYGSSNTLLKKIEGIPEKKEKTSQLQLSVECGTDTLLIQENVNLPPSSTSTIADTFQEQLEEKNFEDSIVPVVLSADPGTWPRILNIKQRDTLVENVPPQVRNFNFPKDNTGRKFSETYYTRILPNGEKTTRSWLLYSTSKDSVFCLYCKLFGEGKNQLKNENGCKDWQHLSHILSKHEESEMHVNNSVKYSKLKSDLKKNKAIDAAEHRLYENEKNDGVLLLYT
UniProt Q9H707: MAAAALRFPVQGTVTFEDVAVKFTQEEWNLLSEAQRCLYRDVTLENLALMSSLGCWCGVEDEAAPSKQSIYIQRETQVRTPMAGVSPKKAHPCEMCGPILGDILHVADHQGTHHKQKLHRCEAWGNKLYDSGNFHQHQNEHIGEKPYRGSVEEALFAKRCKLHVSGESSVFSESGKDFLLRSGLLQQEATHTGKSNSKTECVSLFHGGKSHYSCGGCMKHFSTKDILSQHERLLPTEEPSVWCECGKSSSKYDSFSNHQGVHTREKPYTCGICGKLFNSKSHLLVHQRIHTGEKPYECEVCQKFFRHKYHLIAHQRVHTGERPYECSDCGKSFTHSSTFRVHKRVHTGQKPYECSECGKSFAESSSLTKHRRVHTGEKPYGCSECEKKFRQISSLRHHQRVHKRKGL
UniProt Q96IQ9: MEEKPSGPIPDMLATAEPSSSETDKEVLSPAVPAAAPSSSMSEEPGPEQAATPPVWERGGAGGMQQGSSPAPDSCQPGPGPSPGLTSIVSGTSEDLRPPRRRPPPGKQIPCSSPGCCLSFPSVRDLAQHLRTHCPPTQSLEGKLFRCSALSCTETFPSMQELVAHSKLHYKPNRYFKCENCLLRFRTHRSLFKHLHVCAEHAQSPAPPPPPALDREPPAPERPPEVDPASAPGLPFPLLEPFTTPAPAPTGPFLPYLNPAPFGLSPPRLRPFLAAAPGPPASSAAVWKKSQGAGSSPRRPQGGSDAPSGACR
UniProt Q9BU19: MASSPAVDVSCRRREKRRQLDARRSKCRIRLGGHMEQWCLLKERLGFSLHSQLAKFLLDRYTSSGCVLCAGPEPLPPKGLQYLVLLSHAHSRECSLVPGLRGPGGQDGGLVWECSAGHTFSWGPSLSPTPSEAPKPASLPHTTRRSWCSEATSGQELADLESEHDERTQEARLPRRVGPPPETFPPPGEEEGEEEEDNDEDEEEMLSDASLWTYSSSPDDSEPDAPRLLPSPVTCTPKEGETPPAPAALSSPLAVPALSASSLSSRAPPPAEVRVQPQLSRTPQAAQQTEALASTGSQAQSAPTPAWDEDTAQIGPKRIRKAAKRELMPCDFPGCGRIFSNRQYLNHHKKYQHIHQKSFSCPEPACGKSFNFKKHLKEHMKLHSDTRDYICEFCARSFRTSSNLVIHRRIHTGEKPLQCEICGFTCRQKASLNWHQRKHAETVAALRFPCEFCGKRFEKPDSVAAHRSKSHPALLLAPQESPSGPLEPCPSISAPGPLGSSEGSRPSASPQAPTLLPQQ
UniProt Q9UJN7: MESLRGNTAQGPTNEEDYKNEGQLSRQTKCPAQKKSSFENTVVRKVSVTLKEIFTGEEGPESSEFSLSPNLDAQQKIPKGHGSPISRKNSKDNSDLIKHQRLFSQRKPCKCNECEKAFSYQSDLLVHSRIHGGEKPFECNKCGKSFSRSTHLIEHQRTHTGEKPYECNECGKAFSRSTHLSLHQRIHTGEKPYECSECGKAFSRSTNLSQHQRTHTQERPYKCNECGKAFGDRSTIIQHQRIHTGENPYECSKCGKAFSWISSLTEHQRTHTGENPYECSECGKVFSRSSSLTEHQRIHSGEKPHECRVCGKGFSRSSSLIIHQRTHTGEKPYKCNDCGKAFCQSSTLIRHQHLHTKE
UniProt Q9UDW3: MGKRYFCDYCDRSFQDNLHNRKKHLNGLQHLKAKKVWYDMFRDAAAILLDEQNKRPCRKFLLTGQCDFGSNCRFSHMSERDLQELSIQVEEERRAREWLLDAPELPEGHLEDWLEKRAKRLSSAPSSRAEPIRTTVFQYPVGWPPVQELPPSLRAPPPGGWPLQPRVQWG
UniProt Q6ZN06: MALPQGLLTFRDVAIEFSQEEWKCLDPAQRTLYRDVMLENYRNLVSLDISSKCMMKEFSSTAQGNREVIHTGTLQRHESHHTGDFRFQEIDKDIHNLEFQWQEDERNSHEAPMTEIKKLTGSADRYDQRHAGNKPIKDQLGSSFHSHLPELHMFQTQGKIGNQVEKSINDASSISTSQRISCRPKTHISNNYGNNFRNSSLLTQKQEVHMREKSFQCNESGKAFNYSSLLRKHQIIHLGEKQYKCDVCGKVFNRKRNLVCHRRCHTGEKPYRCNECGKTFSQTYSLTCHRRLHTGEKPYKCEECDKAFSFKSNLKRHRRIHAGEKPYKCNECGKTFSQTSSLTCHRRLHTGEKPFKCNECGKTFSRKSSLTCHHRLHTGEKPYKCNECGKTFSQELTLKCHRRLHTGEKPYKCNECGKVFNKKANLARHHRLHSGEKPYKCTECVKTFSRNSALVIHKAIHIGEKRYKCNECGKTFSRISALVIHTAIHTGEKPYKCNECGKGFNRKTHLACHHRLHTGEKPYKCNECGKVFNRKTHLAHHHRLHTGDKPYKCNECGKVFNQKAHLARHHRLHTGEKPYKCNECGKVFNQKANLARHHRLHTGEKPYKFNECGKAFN
UniProt Q0VGE8: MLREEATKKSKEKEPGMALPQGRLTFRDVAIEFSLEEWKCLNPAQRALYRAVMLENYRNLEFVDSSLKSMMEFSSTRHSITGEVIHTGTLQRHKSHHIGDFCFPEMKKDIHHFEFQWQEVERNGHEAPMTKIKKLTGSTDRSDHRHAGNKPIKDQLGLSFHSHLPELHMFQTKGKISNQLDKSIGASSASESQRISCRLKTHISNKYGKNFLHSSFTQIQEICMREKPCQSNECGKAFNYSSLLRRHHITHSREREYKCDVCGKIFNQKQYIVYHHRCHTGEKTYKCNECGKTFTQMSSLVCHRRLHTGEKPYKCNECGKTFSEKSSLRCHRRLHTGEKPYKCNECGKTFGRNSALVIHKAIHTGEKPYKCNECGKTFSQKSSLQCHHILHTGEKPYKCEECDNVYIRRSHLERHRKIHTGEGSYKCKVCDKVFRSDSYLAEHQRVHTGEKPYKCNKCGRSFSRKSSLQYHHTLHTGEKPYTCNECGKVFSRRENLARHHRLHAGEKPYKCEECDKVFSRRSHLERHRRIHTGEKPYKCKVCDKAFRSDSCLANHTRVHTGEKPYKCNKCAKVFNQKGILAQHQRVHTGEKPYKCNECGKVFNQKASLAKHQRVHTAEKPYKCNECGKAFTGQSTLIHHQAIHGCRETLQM
UniProt Q96E35: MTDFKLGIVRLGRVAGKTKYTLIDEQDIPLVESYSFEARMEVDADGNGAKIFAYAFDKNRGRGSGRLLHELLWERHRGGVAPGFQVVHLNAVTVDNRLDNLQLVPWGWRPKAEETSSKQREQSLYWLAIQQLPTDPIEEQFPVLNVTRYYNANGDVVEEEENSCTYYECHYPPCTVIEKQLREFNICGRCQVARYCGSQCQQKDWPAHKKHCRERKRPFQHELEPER
UniProt Q9P1U0, whole entry, looked up: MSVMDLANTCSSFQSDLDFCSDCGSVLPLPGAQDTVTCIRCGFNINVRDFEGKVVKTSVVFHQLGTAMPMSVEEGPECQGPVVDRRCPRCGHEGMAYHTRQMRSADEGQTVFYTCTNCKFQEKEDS
UniProt Q6NSZ9: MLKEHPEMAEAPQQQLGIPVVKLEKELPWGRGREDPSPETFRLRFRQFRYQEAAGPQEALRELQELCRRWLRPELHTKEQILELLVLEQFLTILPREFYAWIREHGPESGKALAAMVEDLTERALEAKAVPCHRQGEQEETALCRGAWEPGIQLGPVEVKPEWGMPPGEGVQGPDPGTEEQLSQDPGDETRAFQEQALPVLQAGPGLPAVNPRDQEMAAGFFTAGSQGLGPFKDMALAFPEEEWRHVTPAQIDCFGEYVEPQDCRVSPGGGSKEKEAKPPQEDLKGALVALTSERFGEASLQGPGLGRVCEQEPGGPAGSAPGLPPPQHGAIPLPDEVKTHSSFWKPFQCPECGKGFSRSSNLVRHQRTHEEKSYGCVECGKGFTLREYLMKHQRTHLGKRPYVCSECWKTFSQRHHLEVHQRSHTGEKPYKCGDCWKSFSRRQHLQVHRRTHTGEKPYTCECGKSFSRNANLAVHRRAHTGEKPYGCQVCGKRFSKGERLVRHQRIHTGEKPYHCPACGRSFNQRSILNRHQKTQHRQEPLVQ
UniProt Q8IYI8: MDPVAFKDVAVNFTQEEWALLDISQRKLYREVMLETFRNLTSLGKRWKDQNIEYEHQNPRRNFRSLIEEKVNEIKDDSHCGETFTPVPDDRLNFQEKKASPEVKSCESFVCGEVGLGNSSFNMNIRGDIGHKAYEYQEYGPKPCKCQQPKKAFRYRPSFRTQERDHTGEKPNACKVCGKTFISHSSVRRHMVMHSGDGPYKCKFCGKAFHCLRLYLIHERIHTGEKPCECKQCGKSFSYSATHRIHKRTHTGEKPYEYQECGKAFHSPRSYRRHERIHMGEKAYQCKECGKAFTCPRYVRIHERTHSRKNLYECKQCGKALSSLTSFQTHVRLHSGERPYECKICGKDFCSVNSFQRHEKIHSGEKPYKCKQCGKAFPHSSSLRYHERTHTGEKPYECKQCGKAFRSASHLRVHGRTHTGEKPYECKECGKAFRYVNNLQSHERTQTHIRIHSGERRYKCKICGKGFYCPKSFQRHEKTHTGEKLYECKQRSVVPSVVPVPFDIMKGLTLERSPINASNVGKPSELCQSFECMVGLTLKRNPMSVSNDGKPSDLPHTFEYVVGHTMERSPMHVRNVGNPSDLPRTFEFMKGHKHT

saracatinib = compound: CN1CCN(CCOc2cc(OC3CCOCC3)c3c(Nc4c(Cl)ccc5c4OCO5)ncnc3c2)CC1 [saracatinib]
How it was run: as §1

vemurafenib = compound: CCCS(=O)(=O)Nc1ccc(F)c(C(=O)c2c[nH]c3ncc(-c4ccc(Cl)cc4)cc23)c1F [vemurafenib]
How it was run: as §1

[2] = compound: CC[C@@H]1C(=O)N(C)c2cnc(Nc3ccc(C(=O)NC4CCN(C)CC4)cc3OC)nc2N1C1CCCC1
How it was run: as §1

ralimetinib = compound: CC(C)(C)Cn1c(N)nc2ccc(-c3[nH]c(C(C)(C)C)nc3-c3ccc(F)cc3)nc21 [ralimetinib]
How it was run: as §1

[3] = compound: CC(C)(O)CC(=O)NCCn1ccc2ncnc(Nc3ccc(Oc4cccc(C(F)(F)F)c4)c(Cl)c3)c21
How it was run: as §1

[4] = compound: CC1=C(C=C(C=C1)NC(=O)C2=CC(=CC=C2)N(C)C)NC(=O)C3=CC=C(C=C3)O
How it was run: as §1

[5] = compound: CCn1c(C(=O)N(C2CC2)C2CC2)cc2c3c(ncn3C)c(Nc3cc(C)n(C)n3)nc21
How it was run: as §1

[6] = compound: CC1=C(C=C(C=C1)NC(=O)C2=CC(=CC=C2)C(C)(C)C#N)NC3=CC4=C(C=C3)N=CN(C4=O)C
How it was run: as §1

[7] = compound: CCn1cc(-c2ccnc3[nH]c(-c4cccc(CN(C)C)c4)cc23)c(-c2ccc(NC(=O)N(C)C)cc2)n1
How it was run: as §1

[8] = compound: CN1CCC(CNc2ccc3ncc(-c4cccc(OC(F)(F)F)c4)n3n2)CC1
How it was run: as §1

sotrastaurin = compound: CN1CCN(c2nc(C3=C(c4c[nH]c5ccccc45)C(=O)NC3=O)c3ccccc3n2)CC1 [sotrastaurin]
How it was run: as §1

[9] = compound: CC(C)C1=C2N=C(C=C(N2N=C1)NCC3=CC=CC=C3)NCCCCCCN
How it was run: as §1

[10] = compound: CC1=C(C(CC(=O)N1)C2=CC=C(C=C2)C(F)(F)F)C(=O)NC3=C(C=C4C(=C3)C=NN4)F
How it was run: as §1

Measured: log2 fold change

ZNF562 (UniProt Q6V9R5)
inactive: [1] -0.116 | saracatinib -0.179

ZNF77 (UniProt Q15935)
inactive: vemurafenib 0.109 | [2] -0.062

ZNF485 (UniProt Q8NCK3)
inactive: ralimetinib -0.145 | [3] -0.044 | [4] 0.158 | [5] -0.037

ZGRF1 (UniProt Q86YA3)
inactive: ralimetinib -0.022 | [3] -0.127 | [1] 0.023 | [6] -0.026 | [4] 0.044 | [2] 0.07 | [5] -0.098 | [7] -0.036 | [8] 0.072 | saracatinib -0.062 | sotrastaurin 0.08

ZNF146 (UniProt Q15072)
inactive: [1] -0.187 | saracatinib 0.247

Quoted from the entries so far (2 entries):
ZNF485 (UniProt Q8NCK3)
inactive: ralimetinib -0.145 | [3] -0.044 | [4] 0.158 | [5] -0.037

ZGRF1 (UniProt Q86YA3)
inactive: ralimetinib -0.022 | [3] -0.127 | [1] 0.023 | [6] -0.026 | [4] 0.044 | [2] 0.07 | [5] -0.098 | [7] -0.036 | [8] 0.072 | saracatinib -0.062 | sotrastaurin 0.08

The listing continues.

ZMYM5 (UniProt Q9UJ78)
inactive: [9] -0.073 | vemurafenib 0.102

ZNF646 (UniProt O15015)
inactive: ralimetinib -0.106 | [3] -0.322 | [6] 0.083 | [4] -0.057 | [5] -0.231 | sotrastaurin 0.055

ZNF552 (UniProt Q9H707)
inactive: [10] 0.135

ZNF414 isoform 2 (UniProt Q96IQ9)
inactive: ralimetinib 0.103 | [3] -0.031 | [6] 0.02 | [4] -0.269 | [2] 0.117 | [5] 0.238 | [7] -0.052 | [8] -0.014 | sotrastaurin -0.09

ZSCAN26 (UniProt Q16670)
inactive: [6] 0.007 | sotrastaurin -0.239

ZNF708 (UniProt P17019)
inactive: vemurafenib -0.175 | [2] -0.081

ZNF692 isoform 5 (UniProt Q9BU19)
inactive: [1] -0.207 | vemurafenib 0.037 | saracatinib -0.039

ZNF76 (UniProt P36508)
inactive: [9] -0.072 | [6] 0.045 | vemurafenib -0.073 | sotrastaurin -0.015

ZNF391 (UniProt Q9UJN7)
inactive: [2] 0.346

ZMAT5 (UniProt Q9UDW3)
inactive: [9] -0.032

ZNF652 (UniProt Q9Y2D9)
inactive: [6] 0.042 | sotrastaurin -0.034

ZNF813 (UniProt Q6ZN06)
inactive: [10] -0.03 | [1] 0 | [7] 0.504 | [8] -0.066 | saracatinib 0.137

ZNF670 (UniProt Q9BS34)
inactive: [9] -0.01 | [10] 0.006 | [7] 0.015 | [8] 0.019

ZNF595 (UniProt Q8IYB9)
inactive: ralimetinib 0.19 | [3] 0.104 | [6] -0.037 | [4] -0.086 | vemurafenib 0.024 | [2] -0.038 | [5] 0.158 | [7] -0.25 | [8] -0.04 | sotrastaurin 0.062

ZUP1 (UniProt Q96AP4)
inactive: [1] 0.052 | saracatinib 0.023

ZNF816 (UniProt Q0VGE8)
inactive: ralimetinib -0.059 | [3] -0.017 | [10] -0.035 | [6] -0.164 | [4] -0.021 | [5] 0.034 | sotrastaurin -0.167

ZMYND19 (UniProt Q96E35)
inactive: [9] -0.102 | [6] -0.109 | sotrastaurin -0.01

ZNRD1 (UniProt Q9P1U0)
inactive: [9] 0.087 | [10] -0.005 | [7] -0.082 | [8] -0.043

ZSCAN25 (UniProt Q6NSZ9)
inactive: [9] -0.068 | [1] 0.056 | saracatinib 0.058

ZNF440 (UniProt Q8IYI8)
inactive: [10] 0.211

ZNF280A, A0A0G2JN84
inactive: [6] 0.163 | sotrastaurin -0.045

ZNF286A (UniProt Q9HBT8)
inactive: [7] 0.208 | [8] 0.004

Reference: the supplement of paper PMC10849652
